Experimental findings from publication PMC6299225 are described below.

The assay addresses His-PRO (recombinant TbPRMT1 prozyme subunit) (T. brucei). As to the kind of experiment: co-purification by nickel affinity after coexpression; ENZ and His-PRO coexpressed in E. coli, complex purified by nickel affinity.

These are yes or no findings as the source states them, for the method shown. In cells and extracts the contact can be indirect. Binding calls can cover weak binding; strength is not graded here. Tags and fused reporters may be left off the sequences shown.

B1: ENZ (recombinant TbPRMT1 enzymatic subunit, coexpressed with His-PRO) (protein, UniProt Q4GYA9 1-345)
chain: MTVDANAASSTTTTTDYYFDSYSHYGIHMEMLKDCHRTTSYRDAMWRNAYLFKDKVVLDVGCGTGILSMFAAKAGARKVIGVDCSTVAVQAREIVRDNGFEDVITIIQGKVEEIQLDEKVDIIISEWMGYFLLYESMLNTVLYARDNLGTPDVKMFPDKANMHVCGITDEQYIQERFNIWDNVQGIDFSYFKRLSFIEPLVDTVERSQIVTNVAPLVSFDINTVKEADLSFTSEFALEAQASRGKRNGGNSIIYVHALSVHFDTPFTAGHEVVILDTTPYSPPTHWRQTVLYLFNPLRMRAGERATFRMKCSPNALNGRDLDISLHVDFEGALQISHYDQDFRLR
For B1, the binding entry is given as “binds”.
